Laboratory results from the supplement of paper PMC12823440, “Inhibitors supercharge kinase turnover through native proteolytic circuits” (Nature, 2025).
Some of the results follow. Hit calls seldom repeat between salt and free forms of one compound.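 Kinases, fused to nanoluciferase, were expressed in K562 cells; luminescence was measured every 4 h from 2 to 18 h as percent of control (DMSO = 100%, positive control = 0%). A time point is decreased if signal falls significantly (2 sigma). Hits were called by the authors by a rule that is not shown; the count of time points alone does not decide it.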

By UniProt entry, the sequences of proteins in these tests, tags left out. Where a name states a change or a piece, a line headed by the entry shows the natural chain unless it says otherwise.
UniProt P11362, whole entry, looked up: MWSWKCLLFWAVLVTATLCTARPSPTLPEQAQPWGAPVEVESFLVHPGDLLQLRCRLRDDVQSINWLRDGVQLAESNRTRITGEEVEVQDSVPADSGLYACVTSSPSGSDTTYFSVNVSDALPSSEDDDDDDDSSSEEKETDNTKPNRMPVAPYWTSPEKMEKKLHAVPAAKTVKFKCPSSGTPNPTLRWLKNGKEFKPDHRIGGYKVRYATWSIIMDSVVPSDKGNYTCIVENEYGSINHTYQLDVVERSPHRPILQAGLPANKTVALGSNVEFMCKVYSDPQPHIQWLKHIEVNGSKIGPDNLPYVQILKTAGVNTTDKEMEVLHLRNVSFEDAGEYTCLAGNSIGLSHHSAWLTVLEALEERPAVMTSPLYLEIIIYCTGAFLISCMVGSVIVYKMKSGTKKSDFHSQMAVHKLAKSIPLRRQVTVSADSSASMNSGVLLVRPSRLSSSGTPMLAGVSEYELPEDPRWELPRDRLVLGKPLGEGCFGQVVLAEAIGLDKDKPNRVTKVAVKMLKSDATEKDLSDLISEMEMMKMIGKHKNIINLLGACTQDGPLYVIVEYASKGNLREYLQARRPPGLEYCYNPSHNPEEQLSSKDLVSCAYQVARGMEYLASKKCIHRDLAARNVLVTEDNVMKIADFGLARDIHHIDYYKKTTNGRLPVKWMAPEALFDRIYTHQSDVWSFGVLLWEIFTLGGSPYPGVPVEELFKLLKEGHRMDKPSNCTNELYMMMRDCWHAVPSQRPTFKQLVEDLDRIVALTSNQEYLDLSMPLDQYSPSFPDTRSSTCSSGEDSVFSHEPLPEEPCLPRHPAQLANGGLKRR
UniProt P21802, whole entry, looked up: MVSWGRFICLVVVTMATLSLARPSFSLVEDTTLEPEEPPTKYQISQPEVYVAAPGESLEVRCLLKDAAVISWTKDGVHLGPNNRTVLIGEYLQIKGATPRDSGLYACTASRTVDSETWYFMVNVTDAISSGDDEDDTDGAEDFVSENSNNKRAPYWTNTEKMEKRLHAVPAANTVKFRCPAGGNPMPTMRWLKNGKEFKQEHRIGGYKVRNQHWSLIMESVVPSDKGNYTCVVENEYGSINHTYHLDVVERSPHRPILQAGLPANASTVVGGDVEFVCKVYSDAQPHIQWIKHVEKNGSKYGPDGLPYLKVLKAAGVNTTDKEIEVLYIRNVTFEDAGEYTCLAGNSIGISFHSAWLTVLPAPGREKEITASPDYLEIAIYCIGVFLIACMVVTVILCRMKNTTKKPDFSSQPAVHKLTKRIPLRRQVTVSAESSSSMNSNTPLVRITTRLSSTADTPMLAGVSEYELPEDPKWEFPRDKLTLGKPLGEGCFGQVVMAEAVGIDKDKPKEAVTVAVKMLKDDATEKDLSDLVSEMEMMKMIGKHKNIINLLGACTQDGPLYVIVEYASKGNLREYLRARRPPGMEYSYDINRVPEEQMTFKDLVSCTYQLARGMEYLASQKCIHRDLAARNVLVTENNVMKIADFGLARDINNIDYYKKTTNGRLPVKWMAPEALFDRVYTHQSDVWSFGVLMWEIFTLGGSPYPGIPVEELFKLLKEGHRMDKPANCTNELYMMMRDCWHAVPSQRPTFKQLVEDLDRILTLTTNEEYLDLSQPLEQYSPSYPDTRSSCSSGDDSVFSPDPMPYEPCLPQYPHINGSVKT
UniProt P22607, whole entry, looked up: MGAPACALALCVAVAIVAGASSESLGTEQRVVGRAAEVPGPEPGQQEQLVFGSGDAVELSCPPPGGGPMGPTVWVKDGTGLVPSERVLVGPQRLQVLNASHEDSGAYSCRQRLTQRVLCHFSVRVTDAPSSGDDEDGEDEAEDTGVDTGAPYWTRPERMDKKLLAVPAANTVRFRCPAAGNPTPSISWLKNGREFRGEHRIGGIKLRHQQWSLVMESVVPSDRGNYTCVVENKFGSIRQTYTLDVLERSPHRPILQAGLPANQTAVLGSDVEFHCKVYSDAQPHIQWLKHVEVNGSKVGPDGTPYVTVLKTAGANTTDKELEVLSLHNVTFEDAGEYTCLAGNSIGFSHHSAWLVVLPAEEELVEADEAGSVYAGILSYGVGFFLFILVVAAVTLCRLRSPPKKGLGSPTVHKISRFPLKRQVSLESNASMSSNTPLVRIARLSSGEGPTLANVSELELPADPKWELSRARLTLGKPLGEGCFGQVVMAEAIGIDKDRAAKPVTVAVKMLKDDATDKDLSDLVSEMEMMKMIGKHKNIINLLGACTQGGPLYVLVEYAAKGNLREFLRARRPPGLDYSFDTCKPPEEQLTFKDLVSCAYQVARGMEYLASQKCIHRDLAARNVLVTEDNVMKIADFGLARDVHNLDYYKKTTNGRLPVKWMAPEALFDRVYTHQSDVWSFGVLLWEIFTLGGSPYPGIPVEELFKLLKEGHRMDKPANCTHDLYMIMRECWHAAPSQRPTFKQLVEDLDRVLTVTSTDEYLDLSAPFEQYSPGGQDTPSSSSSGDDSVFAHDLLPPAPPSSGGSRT
UniProt P36888, whole entry: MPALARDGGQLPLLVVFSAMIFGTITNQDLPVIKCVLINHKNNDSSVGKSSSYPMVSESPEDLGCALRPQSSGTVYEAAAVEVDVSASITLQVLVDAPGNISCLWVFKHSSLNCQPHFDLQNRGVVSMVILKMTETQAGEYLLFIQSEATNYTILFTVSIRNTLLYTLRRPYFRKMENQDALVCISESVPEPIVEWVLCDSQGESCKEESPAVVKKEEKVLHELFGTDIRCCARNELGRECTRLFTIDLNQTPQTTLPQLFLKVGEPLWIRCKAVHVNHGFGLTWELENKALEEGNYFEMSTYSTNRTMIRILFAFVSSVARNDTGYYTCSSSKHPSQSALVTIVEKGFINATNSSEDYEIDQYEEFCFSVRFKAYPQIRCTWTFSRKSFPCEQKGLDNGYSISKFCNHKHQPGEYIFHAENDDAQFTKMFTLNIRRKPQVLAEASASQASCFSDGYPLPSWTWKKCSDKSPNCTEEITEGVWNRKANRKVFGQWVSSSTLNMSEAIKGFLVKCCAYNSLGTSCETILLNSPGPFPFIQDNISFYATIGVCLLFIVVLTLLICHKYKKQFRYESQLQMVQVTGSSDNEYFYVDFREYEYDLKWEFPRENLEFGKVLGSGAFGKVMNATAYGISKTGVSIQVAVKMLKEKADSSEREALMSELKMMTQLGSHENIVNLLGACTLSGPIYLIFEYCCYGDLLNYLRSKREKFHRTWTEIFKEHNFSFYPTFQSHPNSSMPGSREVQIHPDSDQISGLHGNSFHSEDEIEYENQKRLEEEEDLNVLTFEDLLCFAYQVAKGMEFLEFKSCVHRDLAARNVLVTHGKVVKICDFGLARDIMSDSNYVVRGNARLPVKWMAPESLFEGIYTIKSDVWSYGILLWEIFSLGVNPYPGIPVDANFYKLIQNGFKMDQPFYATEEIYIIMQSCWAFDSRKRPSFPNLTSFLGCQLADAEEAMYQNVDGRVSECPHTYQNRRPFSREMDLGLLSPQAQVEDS
UniProt P49840: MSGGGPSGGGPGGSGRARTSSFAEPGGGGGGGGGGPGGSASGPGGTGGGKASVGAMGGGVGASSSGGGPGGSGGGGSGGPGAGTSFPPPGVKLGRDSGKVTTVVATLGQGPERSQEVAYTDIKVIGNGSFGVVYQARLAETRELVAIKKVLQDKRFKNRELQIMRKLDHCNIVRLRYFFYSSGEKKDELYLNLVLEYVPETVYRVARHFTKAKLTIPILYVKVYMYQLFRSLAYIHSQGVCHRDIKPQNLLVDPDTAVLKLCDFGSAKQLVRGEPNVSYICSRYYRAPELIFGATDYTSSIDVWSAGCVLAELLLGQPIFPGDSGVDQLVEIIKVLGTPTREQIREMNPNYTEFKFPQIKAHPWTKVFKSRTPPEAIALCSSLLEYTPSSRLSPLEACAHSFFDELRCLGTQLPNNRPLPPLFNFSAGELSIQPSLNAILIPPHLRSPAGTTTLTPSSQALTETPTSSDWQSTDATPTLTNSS
UniProt P14616: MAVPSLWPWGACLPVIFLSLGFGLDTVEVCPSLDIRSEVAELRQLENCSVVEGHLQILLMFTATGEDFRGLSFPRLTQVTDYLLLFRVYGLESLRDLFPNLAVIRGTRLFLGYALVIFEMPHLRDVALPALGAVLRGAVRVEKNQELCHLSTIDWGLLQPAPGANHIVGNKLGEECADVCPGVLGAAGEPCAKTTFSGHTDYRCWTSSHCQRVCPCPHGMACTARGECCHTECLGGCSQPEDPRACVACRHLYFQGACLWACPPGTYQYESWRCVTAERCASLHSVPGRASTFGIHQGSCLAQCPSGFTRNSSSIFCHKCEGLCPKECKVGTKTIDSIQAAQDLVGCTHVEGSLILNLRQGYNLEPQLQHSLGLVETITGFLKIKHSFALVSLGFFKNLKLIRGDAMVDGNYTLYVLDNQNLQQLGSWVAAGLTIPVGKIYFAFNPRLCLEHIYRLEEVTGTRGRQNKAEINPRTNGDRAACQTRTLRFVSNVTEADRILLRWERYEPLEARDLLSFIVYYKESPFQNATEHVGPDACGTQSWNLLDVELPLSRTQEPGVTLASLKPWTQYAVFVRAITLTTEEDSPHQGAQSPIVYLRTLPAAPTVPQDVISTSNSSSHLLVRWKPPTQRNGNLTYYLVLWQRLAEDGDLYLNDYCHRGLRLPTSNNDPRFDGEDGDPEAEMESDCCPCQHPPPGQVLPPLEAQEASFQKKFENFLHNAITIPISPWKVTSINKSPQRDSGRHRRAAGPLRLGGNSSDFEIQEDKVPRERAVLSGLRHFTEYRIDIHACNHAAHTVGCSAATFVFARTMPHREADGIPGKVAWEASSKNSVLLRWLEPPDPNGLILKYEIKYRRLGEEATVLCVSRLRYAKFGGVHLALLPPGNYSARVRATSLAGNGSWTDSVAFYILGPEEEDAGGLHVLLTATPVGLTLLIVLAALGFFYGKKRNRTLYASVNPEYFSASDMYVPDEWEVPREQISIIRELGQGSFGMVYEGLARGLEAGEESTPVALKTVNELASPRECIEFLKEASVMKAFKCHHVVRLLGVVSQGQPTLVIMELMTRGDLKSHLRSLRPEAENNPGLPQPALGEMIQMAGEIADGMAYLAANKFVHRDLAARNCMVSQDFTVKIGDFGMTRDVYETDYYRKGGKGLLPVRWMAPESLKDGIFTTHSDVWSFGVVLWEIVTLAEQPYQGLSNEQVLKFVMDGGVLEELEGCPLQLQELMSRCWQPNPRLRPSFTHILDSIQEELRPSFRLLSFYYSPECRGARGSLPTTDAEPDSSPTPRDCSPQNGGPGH
UniProt O75460: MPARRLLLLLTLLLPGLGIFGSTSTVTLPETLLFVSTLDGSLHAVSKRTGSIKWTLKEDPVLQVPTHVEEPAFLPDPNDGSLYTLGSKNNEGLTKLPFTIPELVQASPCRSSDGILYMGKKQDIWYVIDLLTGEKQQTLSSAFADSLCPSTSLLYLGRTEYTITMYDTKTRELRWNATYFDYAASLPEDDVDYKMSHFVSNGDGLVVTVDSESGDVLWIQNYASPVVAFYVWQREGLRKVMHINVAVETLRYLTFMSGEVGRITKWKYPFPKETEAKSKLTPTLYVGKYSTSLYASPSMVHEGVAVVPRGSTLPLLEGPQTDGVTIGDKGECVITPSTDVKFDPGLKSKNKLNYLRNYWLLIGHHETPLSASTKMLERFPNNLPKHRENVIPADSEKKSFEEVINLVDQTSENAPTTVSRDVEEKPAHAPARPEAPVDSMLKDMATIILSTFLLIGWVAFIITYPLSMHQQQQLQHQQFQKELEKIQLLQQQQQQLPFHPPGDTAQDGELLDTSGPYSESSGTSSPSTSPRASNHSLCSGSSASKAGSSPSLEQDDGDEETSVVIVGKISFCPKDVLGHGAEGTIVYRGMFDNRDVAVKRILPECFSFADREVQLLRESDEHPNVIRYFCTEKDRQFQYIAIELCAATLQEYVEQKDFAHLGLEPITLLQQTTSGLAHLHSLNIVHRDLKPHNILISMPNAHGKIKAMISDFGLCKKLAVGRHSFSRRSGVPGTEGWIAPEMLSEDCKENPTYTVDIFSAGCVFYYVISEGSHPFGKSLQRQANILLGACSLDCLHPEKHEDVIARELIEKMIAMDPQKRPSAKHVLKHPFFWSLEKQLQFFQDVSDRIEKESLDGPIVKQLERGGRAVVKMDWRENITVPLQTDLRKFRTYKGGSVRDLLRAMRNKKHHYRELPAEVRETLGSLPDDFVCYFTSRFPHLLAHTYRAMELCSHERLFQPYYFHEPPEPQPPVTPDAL

Experiments:
Assay in all cases: kinase-Nluc reporter destabilization hit call (1 = scored as downregulated) (binary); higher = compound decreases kinase abundance
Conditions in all cases: K562; 2-18 h
FGFR1 = FGFR1 (UniProt P11362)
FGFR2 = FGFR2 (UniProt P21802)
FGFR3 = FGFR3 (UniProt P22607)
FGR = FGR (UniProt P09769)
FLT3 = FLT3 (UniProt P36888)
FYN = FYN (UniProt P06241)
GSK3A = GSK3A (UniProt P49840)
HER2 = HER2 (UniProt P04626)
INSRR = INSRR (UniProt P14616)
ERN1 = ERN1 (UniProt O75460)

Measured: kinase-Nluc reporter destabilization hit call

CNC(=O)c1cc(Oc2ccc(NC(=O)Nc3cc(C(C)(C)C)nn3-c3ccc4ncccc4c3)c(F)c2)ccn1 [Rebastinib] (2.5 µM)
inactive: FGFR1 = 0 | FGFR2 = 0 | FGFR3 = 0 | FGR 0 | FLT3 = 0 | FYN 0 | GSK3A 0 | HER2 = 0 | INSRR 0

CCn1cc(-c2ccnc3[nH]c(-c4cccc(CN(C)C)c4)cc23)c(-c2ccc(NC(=O)N(C)C)cc2)n1 (2.5 µM)
inactive: ERN1 = 0 | FGFR2 = 0 | FGFR3 = 0 | FGR 0 | FLT3 = 0 | FYN 0 | GSK3A 0 | HER2 = 0 | INSRR 0

O=C1Nc2ccccc2/C1=C/c1ccc(F)cc1 (10 µM)
inactive: FGFR1 = 0 | FGFR2 = 0 | FGFR3 = 0 | FGR 0 | FLT3 = 0 | FYN 0 | GSK3A 0 | HER2 = 0 | INSRR 0

CN1CCN(C(=O)c2ccc(-c3ccc4c(C=O)c(O)ccc4c3)s2)CC1 (2.5 µM)
inactive: FGFR1 = 0 | FGFR2 = 0 | FGFR3 = 0 | FGR 0 | FLT3 = 0 | FYN 0 | GSK3A 0 | HER2 = 0 | INSRR 0

Cn1nc(C(C)(C)C)cc1NC(=O)Nc1ccc(Oc2ccncc2)cc1 (10 µM)
inactive: ERN1 = 0 | FGFR1 = 0 | FGFR2 = 0 | FGFR3 = 0 | FGR 0 | FLT3 = 0 | FYN 0 | GSK3A 0 | HER2 = 0 | INSRR 0

Cc1nc(-c2cnc(NC(C)C)n(C)c2=O)ccc1Oc1ccnc(-c2cnn(C)c2)c1 (2.5 µM)
inactive: ERN1 = 0 | FGFR1 = 0 | FGFR2 = 0 | FGFR3 = 0 | FGR 0 | FYN 0 | GSK3A 0 | HER2 = 0 | INSRR 0

C/C=C(/C)C(=O)O[C@H]1Cc2cc3ccc(=O)oc3cc2OC1(C)C [Decursinol angelate] (10 µM)
inactive: ERN1 = 0 | FGFR1 = 0 | FGFR2 = 0 | FGFR3 = 0 | FGR 0 | FLT3 = 0 | FYN 0 | GSK3A 0 | HER2 = 0 | INSRR 0

O=c1oc2c(C3OCCCO3)c(O)ccc2c2c1CNCC2 (10 µM)
inactive: FGFR1 = 0 | FGFR2 = 0 | FGFR3 = 0 | FGR 0 | FLT3 = 0 | FYN 0 | GSK3A 0 | HER2 = 0 | INSRR 0

Cc1cc(N2CCOCC2)cc2[nH]c(-c3c(NC[C@@H](O)c4cccc(Cl)c4)cc[nH]c3=O)nc12 (10 µM)
inactive: ERN1 = 0 | FGFR1 = 0 | FGFR2 = 0 | FGFR3 = 0 | FGR 0 | FLT3 = 0 | FYN 0 | GSK3A 0 | HER2 = 0 | INSRR 0

COc1cc(C(=O)NC2CCN(C)CC2)ccc1Nc1ncc2c(n1)N(C1CCCC1)CC(F)(F)C(=O)N2C (10 µM)
inactive: ERN1 = 0 | FGFR1 = 0 | FGFR2 = 0 | FGFR3 = 0 | FGR 0 | FLT3 = 0 | FYN 0 | GSK3A 0 | HER2 = 0 | INSRR 0

O=c1cc(-c2ccccc2)oc2c(O)c(O)ccc12 [7,8-Dihydroxyflavone] (10 µM)
inactive: FGFR1 = 0 | FGFR2 = 0 | FGFR3 = 0 | FGR 0 | FLT3 = 0 | FYN 0 | GSK3A 0 | HER2 = 0 | INSRR 0

Quoted at random: 2 compounds from above
COc1cc(C(=O)NC2CCN(C)CC2)ccc1Nc1ncc2c(n1)N(C1CCCC1)CC(F)(F)C(=O)N2C (10 µM)
inactive: ERN1 = 0 | FGFR1 = 0 | FGFR2 = 0 | FGFR3 = 0 | FGR 0 | FLT3 = 0 | FYN 0 | GSK3A 0 | HER2 = 0 | INSRR 0

C/C=C(/C)C(=O)O[C@H]1Cc2cc3ccc(=O)oc3cc2OC1(C)C [Decursinol angelate] (10 µM)
inactive: ERN1 = 0 | FGFR1 = 0 | FGFR2 = 0 | FGFR3 = 0 | FGR 0 | FLT3 = 0 | FYN 0 | GSK3A 0 | HER2 = 0 | INSRR 0
